# The supplement of paper PMC8728848
# The other results are listed elsewhere or left out.
# What was measured:
# Experiment in all cases: glycan array binding signal (z-score within array); higher = stronger binding
# Settings in all cases: glycan notation: IUPAC condensed, linker removed
# [1] = target: Neu5Ac(a2-3)Gal(b1-3)GlcNAc6S
# Outline: (§1)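 Glycan array data came from 3228 arrays in the Consortium for Functional Glycomics database, and only arrays with an available protein sequence were kept. Glycan names were put into IUPAC-condensed notation, and columns mapping to the same glycan were averaged. The binding signal is a within-array Z-score, averaged across arrays of one protein sequence run at different concentrations or buffers and across linkers. A negative Z-score can be read as non-binding.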
# [2] = target: Neu5Ac(a2-3)Gal(b1-3)[Fuc(a1-4)]GlcNAc
# Outline: as §1
# [3] = target: Neu5Ac(a2-3)Gal(b1-3)[Fuc(a1-4)]GlcNAc(b1-3)Gal(b1-3)[Fuc(a1-4)]GlcNAc
# Outline: as §1
# [4] = target: Neu5Ac(a2-3)Gal(b1-3)[Fuc(a1-4)]GlcNAc(b1-3)Gal(b1-4)[Fuc(a1-3)]GlcNAc
# Outline: as §1
# [5] = target: Neu5Ac(a2-3)Gal(b1-3)[GlcNAc(b1-6)]GalNAc
# Outline: as §1
# [6] = target: Neu5Ac(a2-3)Gal(b1-3)[Neu5Ac(a2-6)]GalNAc
# Outline: as §1
# [7] = target: Neu5Ac(a2-3)Gal(b1-3)[Neu5Ac(a2-6)]GlcNAc(b1-3)[Fuc(a1-3)[Gal(b1-4)]GlcNAc(b1-6)]Gal(b1-4)Glc
# Outline: as §1
# [8] = target: Neu5Ac(a2-3)Gal(b1-3)]Neu5Ac(a2-3)Gal(b1-4)]GlcNAc
# Outline: as §1
# Neu5Ac(a2-3)Gal(b1-4)Glc = target: Neu5Ac(a2-3)Gal(b1-4)Glc
# Outline: as §1
# [9] = target: Neu5Ac(a2-3)Gal(b1-4)GlcNAc
# Outline: as §1
# [10] = target: Neu5Ac(a2-3)Gal(b1-4)GlcNAc(b1-2)Man
# Outline: as §1
# [11] = target: Neu5Ac(a2-3)Gal(b1-4)GlcNAc(b1-2)Man(a1-3)[GlcNAc(b1-4)][Neu5Ac(a2-3)Gal(b1-4)GlcNAc(b1-2)Man(a1-6)]Man(b1-4)GlcNAc(b1-4)GlcNAc
# Outline: as §1
# [12] = target: Neu5Ac(a2-3)Gal(b1-4)GlcNAc(b1-2)Man(a1-3)[Neu5Ac(a2-3)Gal(b1-4)GlcNAc(b1-2)Man(a1-6)]Man(b1-4)GlcNAc(b1-4)GlcNAc
# Outline: as §1
# [13] = target: Neu5Ac(a2-3)Gal(b1-4)GlcNAc(b1-2)Man(a1-3)[Neu5Ac(a2-3)Gal(b1-4)GlcNAc(b1-2)Man(a1-6)]Man(b1-4)GlcNAc(b1-4)[Fuc(a1-6)]GlcNAc
# Outline: as §1
# [14] = target: Neu5Ac(a2-3)Gal(b1-4)GlcNAc(b1-2)Man(a1-3)[Neu5Ac(a2-6)Gal(b1-4)GlcNAc(b1-2)Man(a1-6)]Man(b1-4)GlcNAc(b1-4)GlcNAc
# Outline: as §1
# [15] = target: Neu5Ac(a2-3)Gal(b1-4)GlcNAc(b1-2)[Neu5Ac(a2-3)Gal(b1-4)GlcNAc(b1-4)]Man(a1-3)[GlcNAc(b1-4)][Neu5Ac(a2-3)Gal(b1-4)GlcNAc(b1-2)[Neu5Ac(a2-3)Gal(b1-4)GlcNAc(b1-6)]Man(a1-6)]Man(b1-4)GlcNAc(b1-4)GlcNAc
# Outline: as §1
# [16] = target: Neu5Ac(a2-3)Gal(b1-4)GlcNAc(b1-2)[Neu5Ac(a2-3)Gal(b1-4)GlcNAc(b1-4)]Man(a1-3)[GlcNAc(b1-4)][Neu5Ac(a2-3)Gal(b1-4)GlcNAc(b1-4)Man(a1-6)]Man(b1-4)GlcNAc(b1-4)GlcNAc
# Outline: as §1
# [17] = target: Neu5Ac(a2-3)Gal(b1-4)GlcNAc(b1-2)[Neu5Ac(a2-3)Gal(b1-4)GlcNAc(b1-6)]Man(a1-6)[Neu5Ac(a2-3)Gal(b1-4)GlcNAc(b1-2)Man(a1-3)][GlcNAc(b1-4)]Man(b1-4)GlcNAc(b1-4)GlcNAc
# Outline: as §1
# [18] = target: Neu5Ac(a2-3)Gal(b1-4)GlcNAc(b1-3)Gal
# Outline: as §1
# [19] = target: Neu5Ac(a2-3)Gal(b1-4)GlcNAc(b1-3)Gal(b1-3)GlcNAc
# Outline: as §1
# [20] = target: Neu5Ac(a2-3)Gal(b1-4)GlcNAc(b1-3)Gal(b1-4)GlcNAc
# Outline: as §1
# [21] = target: Neu5Ac(a2-3)Gal(b1-4)GlcNAc(b1-3)Gal(b1-4)GlcNAc(b1-2)Man(a1-3)[Neu5Ac(a2-3)Gal(b1-4)GlcNAc(b1-3)Gal(b1-4)GlcNAc(b1-2)Man(a1-6)]Man(b1-4)GlcNAc(b1-4)GlcNAc
# Outline: as §1
# [22] = target: Neu5Ac(a2-3)Gal(b1-4)GlcNAc(b1-3)Gal(b1-4)GlcNAc(b1-3)Gal(b1-4)GlcNAc
# Outline: as §1
# [23] = target: Neu5Ac(a2-3)Gal(b1-4)GlcNAc(b1-3)Gal(b1-4)GlcNAc(b1-3)Gal(b1-4)GlcNAc(b1-2)Man(a1-3)[Neu5Ac(a2-3)Gal(b1-4)GlcNAc(b1-3)Gal(b1-4)GlcNAc(b1-3)Gal(b1-4)GlcNAc(b1-2)Man(a1-6)]GalNAc
# Outline: as §1
# [24] = target: Neu5Ac(a2-3)Gal(b1-4)GlcNAc(b1-3)Gal(b1-4)GlcNAc(b1-3)GalNAc
# Outline: as §1
# [25] = target: Neu5Ac(a2-3)Gal(b1-4)GlcNAc(b1-3)Gal(b1-4)GlcNAc(b1-3)[Neu5Ac(a2-3)Gal(b1-4)GlcNAc(b1-3)Gal(b1-4)GlcNAc(b1-6)]GalNAc
# Outline: as §1
# [26] = target: Neu5Ac(a2-3)Gal(b1-4)GlcNAc(b1-3)Gal(b1-4)GlcNAc(b1-6)[Gal(b1-3)]GalNAc
# Outline: as §1
# [27] = target: Neu5Ac(a2-3)Gal(b1-4)GlcNAc(b1-3)Gal(b1-4)[Fuc(a1-3)]GlcNAc
# Outline: as §1
# [28] = target: Neu5Ac(a2-3)Gal(b1-4)GlcNAc(b1-3)GalNAc
# Outline: as §1
# [29] = target: Neu5Ac(a2-3)Gal(b1-4)GlcNAc(b1-3)[Neu5Ac(a2-3)Gal(b1-4)GlcNAc(b1-6)]GalNAc
# Outline: as §1
# [30] = target: Neu5Ac(a2-3)Gal(b1-4)GlcNAc(b1-6)GalNAc
# Outline: as §1
# [31] = target: Neu5Ac(a2-3)Gal(b1-4)GlcNAc(b1-6)[Gal(b1-3)]GalNAc
# Outline: as §1
# [32] = target: Neu5Ac(a2-3)Gal(b1-4)GlcNAc(b1-6)[Neu5Ac(a2-3)Gal(b1-3)]GalNAc
# Outline: as §1
# [33] = target: Neu5Ac(a2-3)Gal(b1-4)GlcNAc6S
# Outline: as §1
# [34] = target: Neu5Ac(a2-3)Gal(b1-4)[Fuc(a1-3)]GlcNAc
# Outline: as §1
# [35] = target: Neu5Ac(a2-3)Gal(b1-4)[Fuc(a1-3)]GlcNAc(b1-2)Man
# Outline: as §1
# [36] = target: Neu5Ac(a2-3)Gal(b1-4)[Fuc(a1-3)]GlcNAc(b1-3)Gal
# Outline: as §1
# [37] = target: Neu5Ac(a2-3)Gal(b1-4)[Fuc(a1-3)]GlcNAc(b1-3)Gal(b1-4)GlcNAc
# Outline: as §1
# [38] = target: Neu5Ac(a2-3)Gal(b1-4)[Fuc(a1-3)]GlcNAc(b1-3)Gal(b1-4)[Fuc(a1-3)]GlcNAc(b1-3)Gal(b1-4)[Fuc(a1-3)]GlcNAc
# Outline: as §1
# [39] = target: Neu5Ac(a2-3)Gal(b1-4)[Fuc(a1-3)]GlcNAc(b1-3)GalNAc
# Outline: as §1
# [40] = target: Neu5Ac(a2-3)Gal(b1-4)[Fuc(a1-3)]GlcNAc(b1-6)[Gal(b1-3)]GalNAc
# Outline: as §1
# [41] = target: Neu5Ac(a2-3)Gal(b1-4)[Fuc(a1-3)]GlcNAc(b1-6)[Neu5Ac(a2-3)Gal(b1-3)]GalNAc
# Outline: as §1
# [42] = target: Neu5Ac(a2-3)Gal(b1-4)[Fuc(a1-3)]GlcNAc6S
# Outline: as §1
# [43] = target: Neu5Ac(a2-3)Gal6S(b1-4)GlcNAc
# Outline: as §1
# [44] = target: Neu5Ac(a2-3)Gal6S(b1-4)[Fuc(a1-3)]GlcNAc
# Outline: as §1
binder,measurement,setting,value
Mermaid2 (Stilbonema majum) (protein) MGSSHHHHHHSSGLVPRGSHMAASGWLRSPQGTVVKLYRRSLSWSKADEFCKDVDGRLVVDRTADMHLFLIKNVLKEKKSRVWVGLRRTAPHSRTWIWSDGTRQNEDDLNTNLWLRDEPNDAAGEEECALFMYSPWEKAWGLNDYLCRGGCRSYQFICEKGIR,glycan array binding signal (z-score),[1],-0.204
same,glycan array binding signal (z-score),[2],-0.173
same,glycan array binding signal (z-score),[3],1.72
same,glycan array binding signal (z-score),[4],3.06
same,glycan array binding signal (z-score),[5],-0.617
same,glycan array binding signal (z-score),[6],-0.341
same,glycan array binding signal (z-score),[7],-0.262
same,glycan array binding signal (z-score),[8],-0.44
same,glycan array binding signal (z-score),Neu5Ac(a2-3)Gal(b1-4)Glc,0.161
same,glycan array binding signal (z-score),[9],0.097
same,glycan array binding signal (z-score),[10],1.53
same,glycan array binding signal (z-score),[11],-0.654
same,glycan array binding signal (z-score),[12],-0.512
same,glycan array binding signal (z-score),[13],-0.44
same,glycan array binding signal (z-score),[14],0.602
same,glycan array binding signal (z-score),[15],-0.756
same,glycan array binding signal (z-score),[16],0.441
same,glycan array binding signal (z-score),[17],-0.6
same,glycan array binding signal (z-score),[18],-0.777
same,glycan array binding signal (z-score),[19],-0.39
same,glycan array binding signal (z-score),[20],-0.299
same,glycan array binding signal (z-score),[21],0.453
same,glycan array binding signal (z-score),[22],0.144
same,glycan array binding signal (z-score),[23],1.45
same,glycan array binding signal (z-score),[24],-0.348
same,glycan array binding signal (z-score),[25],0.561
same,glycan array binding signal (z-score),[26],-0.845
same,glycan array binding signal (z-score),[27],-0.386
same,glycan array binding signal (z-score),[28],-0.838
same,glycan array binding signal (z-score),[29],-0.484
same,glycan array binding signal (z-score),[30],-0.499
same,glycan array binding signal (z-score),[31],6.1
same,glycan array binding signal (z-score),[32],-0.392
same,glycan array binding signal (z-score),[33],0.221
same,glycan array binding signal (z-score),[34],-0.529
same,glycan array binding signal (z-score),[35],-0.209
same,glycan array binding signal (z-score),[36],-0.916
same,glycan array binding signal (z-score),[37],-0.296
same,glycan array binding signal (z-score),[38],-0.292
same,glycan array binding signal (z-score),[39],0.396
same,glycan array binding signal (z-score),[40],-0.893
same,glycan array binding signal (z-score),[41],0.3
same,glycan array binding signal (z-score),[42],-0.296
same,glycan array binding signal (z-score),[43],-0.701
same,glycan array binding signal (z-score),[44],-0.08

# Reprinted at random: 3 entries already listed.
binder,measurement,setting,value
Mermaid2 (Stilbonema majum) (protein) MGSSHHHHHHSSGLVPRGSHMAASGWLRSPQGTVVKLYRRSLSWSKADEFCKDVDGRLVVDRTADMHLFLIKNVLKEKKSRVWVGLRRTAPHSRTWIWSDGTRQNEDDLNTNLWLRDEPNDAAGEEECALFMYSPWEKAWGLNDYLCRGGCRSYQFICEKGIR,glycan array binding signal (z-score),[12],-0.512
same,glycan array binding signal (z-score),[33],0.221
same,glycan array binding signal (z-score),[3],1.72
